In PubChem BioAssay AID652054 (National Center for Advancing Translational Sciences (NCATS), 2013):
Among all 360,000 compounds or so, about 9,100 (2.5%) were called active. Inconclusive results, whose numbers are uncertain, are shown with a selection of clear calls. No stated cut-off is given here; in the data, active means max response below about -50%; inconclusive means no clear call, values can overlap the other calls; inactive means above that. The source holds several records for some structures; these can differ, active in one and inactive in another.

Chains of the proteins cited; added tags and fusions are not shown.
UniProt P35462, whole entry, looked up: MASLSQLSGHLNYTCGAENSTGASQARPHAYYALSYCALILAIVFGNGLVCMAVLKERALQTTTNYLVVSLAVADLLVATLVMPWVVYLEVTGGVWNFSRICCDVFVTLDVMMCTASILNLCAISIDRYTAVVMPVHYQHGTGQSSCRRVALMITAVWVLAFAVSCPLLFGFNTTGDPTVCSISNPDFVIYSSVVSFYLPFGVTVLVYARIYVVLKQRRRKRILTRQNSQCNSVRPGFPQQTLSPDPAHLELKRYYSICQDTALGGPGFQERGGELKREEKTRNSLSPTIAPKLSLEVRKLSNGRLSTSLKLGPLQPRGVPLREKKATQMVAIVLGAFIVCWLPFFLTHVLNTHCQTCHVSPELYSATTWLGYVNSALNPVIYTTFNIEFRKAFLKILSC

Target: D(3) dopamine receptor (Homo sapiens) (UniProt P35462)
Assay: qHTS of D3 Dopamine Receptor Antagonist: qHTS
Details: D3R cells, DiscoveRx beta-arrestin luminescence, antagonist mode; active compounds read low
In short: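 Cells expressing the human receptor were seeded at 1500 cells/well, incubated overnight at 37 degrees C in 5% CO2, then exposed to library compounds with dopamine controls for 90 minutes at 37 degrees C before luminescent detection.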
On the % scale 0 is the no-effect control and ±100 the full control effect.

SMILES | max response, negative = inhibition
Fc1ccc(Cn2nnnc2CN2CCc3ccccc3C2)cc1 | inconclusive: -45%
CCS(=O)(=O)N1CCCC(C(=O)NCCCOC(C)C)C1 (centres undefined) | inconclusive: -42.1%
C/C(=N\NC(=O)CCc1ccccc1)C1C(=O)c2ccccc2C1=O | inconclusive: -35.9%
COc1ccc(/C=C/C(=O)NCc2cn(C)nc2C)cc1COc1ccc(Br)cc1 | inconclusive: -38.9%
C/C(=N\NC(=S)Nc1cc(S(=O)(=O)N2CCOCC2)ccc1Cl)c1ccccc1F | inconclusive: -33.4%
CCN1/C(=C2\C(=O)N(C)C(=S)N2C)C=Cc2cc(C)ccc21 | inconclusive: -34.3%
O=C(Cc1ccccc1)c1ccccc1C(=O)N1CCCCC1 | inactive: 19.4%
Cn1c2ccc(F)cc2c2nnc(SCC(=O)Nc3cccc(O)c3)nc21 | inactive: 5.87%
COc1ccc(CN(CCC(c2ccccc2)c2ccc(OC(C)C)cc2)C(=O)CCl)cc1OC (centres undefined) | inconclusive: -41.8%
CC1CCN(Cc2ccc(NC(=O)C3CCN(c4nnc(-n5cccc5)s4)CC3)cc2)CC1 | inconclusive: -45.4%
CCC(=O)N1CCN(C(C)=O)C1c1ccccc1 (centres undefined) | inconclusive: -42.1%
CCCCOc1ccc(C2OC34CCCCC3C(C#N)(C#N)C2(C#N)C(=N)O4)cc1 (centres undefined) | inconclusive: -36.9%
CCCC(c1nnnn1Cc1ccco1)N1CCN(c2cc(Cl)ccc2C)CC1 (centres undefined) | active: -62.1%
CCCN(Cc1nc(-c2ccc(Cl)cc2)no1)CC1CCCO1 (centres undefined) | inactive: 14.7%
Cc1[nH]c2ccccc2c1C(=O)CNc1nccs1 | inconclusive: -38.2%
Cn1cccc1/C=C1\SC(=Nc2ccccc2)NC1=O | inconclusive: -48.7%
CCCn1c(N)c(N2CCCCC2)c(=O)n(CC(=O)Nc2cccc(S(=O)(=O)N(C)C)c2)c1=O | inactive: 8.3%
O=C(Nc1ccc(F)cc1)c1nn(-c2ccccc2)c(=O)cc1Cl | inconclusive: -33.5%
CS(=O)(=O)N1CCCC(C(=O)NCCCN2CCc3ccccc3C2)C1 (centres undefined) | inconclusive: -49.3%
N#C/C(=C(/O)c1ccc([N+](=O)[O-])o1)c1nc2ccccc2[nH]1 | inconclusive: -38.3%
Cc1ccc(C(=O)c2cc([N+](=O)[O-])ccc2N2CCCCC2)c(C)c1 | active: -56.1%
Cc1n[nH]c(C)c1N1C(=O)c2cccc3c(Br)ccc(c23)C1=O | inconclusive: -30.6%
COc1cc(/C=c2\sc3n(c2=O)C(c2ccccc2)C(c2ccccc2)=NN=3)ccc1O (centres undefined) | active: -76.1%

Single values from the entries so far.
max response, negative = inhibition, O=C(Cc1ccccc1)c1ccccc1C(=O)N1CCCCC1 is entered as inactive: 19.4%
max response, negative = inhibition, Cn1c2ccc(F)cc2c2nnc(SCC(=O)Nc3cccc(O)c3)nc21 is entered as inactive: 5.87%
max response, negative = inhibition, COc1ccc(/C=C/C(=O)NCc2cn(C)nc2C)cc1COc1ccc(Br)cc1 is entered as inconclusive: -38.9%

Later entries.

SMILES | max response, negative = inhibition
Cc1ccc(NS(=O)(=O)c2cc([N+](=O)[O-])ccc2NNC(=S)Nc2cccc(Cl)c2)c(C)c1 | active: -73.2%
Cc1ccc2cccc(NC(=O)C(F)(F)F)c2n1 | inconclusive: -43.4%
Cc1cccc(NC(=S)N/C(=N/S(=O)(=O)c2ccccc2)c2ccccc2)c1 | active: -60.7%
Cc1cccc(OCC(=O)N(Cc2ccccc2)c2c(N)n(Cc3ccccc3)c(=O)[nH]c2=O)c1 | inconclusive: -33.2%
O=S(=O)(Nc1cccc(-n2cnnn2)c1)c1cc(Br)ccc1Br | inactive: 1.97%
COc1ccc(C[C@H]2CN3C(=NC[C@H]3C)N2CCNC(=O)c2ccc(C)c(Br)c2)cc1 | active: -57.2%
O=C(COc1ccccc1)NC1CCSC1=O (centres undefined) | inconclusive: -37.3%
COc1ccc(N(CC(=O)NCc2ccccc2OC)S(=O)(=O)c2ccc(C)cc2)cc1Cl | inconclusive: -39.7%
O=C(O)c1nc2ccccc2nc1C(=O)O | inconclusive: -35.7%
O=C(NCc1ccccn1)c1ccc(Cn2cc(C(F)(F)F)ccc2=O)cc1 | inactive: 18.6%
CCOc1c(Br)cc(/C=C2\N=C(C)OC2=O)cc1Br | inactive: 5.73%
CC(/C=C/c1ccccc1F)=N\NC(=O)c1ccc(Cl)cc1 | inactive: -26.8%
C=CCn1c(NCc2c[nH]c3ccccc23)nc2ccccc21 | inconclusive: -42.1%
COc1ccccc1N(Cc1ccccc1)S(=O)(=O)c1cccc(C(=O)N2CCCCC2)c1 | inconclusive: -30.7%
COc1ccc(CCNCC(=O)Nc2ccc(C)c(S(=O)(=O)N(C)C)c2)cc1 | active: -52%
O=C(CSc1ccccc1F)NCC1(N2CCCCC2)CCCCC1 | inconclusive: -30.8%
CCCc1nc2ccccc2c(=O)n1/N=C/c1c(C)[nH]n(-c2ccc(C)cc2)c1=O | inconclusive: -31.9%
COc1ccc(NS(=O)(=O)c2cc(NC(=O)c3ccco3)ccc2N2CCCC2)cc1 | active: -56.5%
Cc1ccc(C)c(S(=O)(=O)N2CCN(C(=O)CNC(=O)c3ccc4ccccc4c3)CC2)c1 | inconclusive: -38.8%
CCOc1cccc(CNc2ccc(O)cc2)c1OCc1ccccc1Cl | inconclusive: -40.1%
CCN(CC)CCOC(=O)C(c1ccccc1)C1CCCCC1 (centres undefined) | active: -88.9%
CC(=O)Nc1cccc(NC(=O)/C=C/c2ccc(S(=O)(=O)N3CCOCC3)cc2)c1 | inactive: 12.9%
COc1cc(CCCN2CCNC[C@@H]2C(C)O)cc(OC)c1OC (some centres undefined) | inconclusive: -31.1%

SMILES | max response, negative = inhibition
O=C(N/N=C/c1cc([N+](=O)[O-])ccc1O)c1ccncc1 | inconclusive: -34.5%
Cc1ccc2c(c1)NC(=O)C(CC(=O)NCCCN1CCCCC1C)O2 (centres undefined) | inconclusive: -32.1%
C=C1CCN([C@H](C(=O)Nc2ccc(OC)cc2)C(C)C)S(=O)(=O)c2ccccc21 | inconclusive: -39.3%
NC(=O)c1ccc(SCC(=O)NC2CCCCC2)c([N+](=O)[O-])c1 | active: -52.3%
COc1ccc(/C=N/NC(=O)Cn2cc(C(F)(F)F)ccc2=O)cc1 | inconclusive: -32.2%
COc1ccc2[nH]cc(C(=O)CNc3nc(C)cs3)c2c1 | inconclusive: -34.2%
COc1c(N2CCN(C(=S)NCc3ccccc3)C(C)C2)c(F)cc2c(=O)c(C(=O)O)cn(C3CC3)c12 (centres undefined) | inconclusive: -32.7%
N=c1sccn1CC(=O)N1N=C(c2ccc(Cl)cc2)CC1c1ccco1 (centres undefined) | inconclusive: -30.2%
CCCN1C2CCCC1CC(NC(=S)Nc1cccc(C)c1C)C2 (centres undefined) | inactive: -15.4%
Cc1cc([N+](=O)[O-])nn1CCCC(=O)NCc1ccc(F)cc1 | inconclusive: -37.1%
O=C(Nc1ccccc1)c1ccccc1NC(=O)c1ccccc1[N+](=O)[O-] | inconclusive: -35.6%
Fc1ccc(OCc2nn[nH]n2)c(F)c1 | inactive: -10.1%
O=C(COC(=O)/C=C/c1ccc(Cl)cc1)Nc1ccc2c(c1)OCCO2 | inconclusive: -35.6%
O=C1C(=O)c2cccnc2-c2ncccc21 | active: -87.1%
O=[N+]([O-])c1cccnc1Sc1ccc(F)cc1 | inactive: 1.79%
O=C(N/N=C\c1ccc(Cl)s1)c1cccs1 | inconclusive: -44.5%
CC(C)(C)N/N=C/c1cc(Cl)cc([N+](=O)[O-])c1O | active: -110%
Cc1ccc(OCCCSc2n[nH]c(N)n2)cc1 | inconclusive: -45.7%
CC1(C)Cc2cccc(C(=O)NCc3ccco3)c2O1 | inconclusive: -31.9%
O=C/C(=C\Nc1ccccn1)c1nc2ccccc2o1 | inconclusive: -39.5%
O=C(COC(=O)c1cccnc1Cl)NCc1ccc2c(c1)OCO2 | inconclusive: -35.6%
CC(C)C[C@H](N)c1cn([C@@H](CCCCN)C(=O)N2CCNCC2)nn1 | inactive: -16.5%
Cc1ccccc1N1C(=O)[C@@H]2Cc3ccccc3CN2C1=O | inconclusive: -31.1%

SMILES | max response, negative = inhibition
CN(C)CCC1(c2ccccc2)CCN(C)C1=O (centres undefined) | inconclusive: -31.7%
CC[C@H](C)Cc1cn([C@@H](CCCN=C(N)N)C(=O)NCCCCCCCCCCC(=O)N2CCNCC2)nn1 | inconclusive: -34.3%
COc1cc(/C=N\n2nnnc2N)ccc1OCc1ccc(F)cc1 | active: -54.1%
O=c1cc(-c2ccccc2)n(S(=O)(=O)c2ccccc2)o1 | inconclusive: -37.1%
CNC(=O)c1ccsc1NC(=O)c1ccc(Cl)s1 | inconclusive: -37.3%
CN(C)CCCN1c2ccc(O)cc2Sc2ccc(Cl)cc21 | active: -110%
CS(=O)(=O)N(Cc1ccc(C(=O)Nc2ccccc2Sc2ccccc2)cc1)c1ccccc1 | inactive: 14.9%
Cc1cccc(Nc2nc(N)nc(CN3CCN(c4ccccc4F)CC3)n2)c1 | active: -52.6%
C[C@H]1CN([C@@H](C)CO)C(=O)c2cc(Br)cnc2O[C@@H]1CN(C)C(=O)Nc1ccc(C(F)(F)F)cc1 | inconclusive: -38.7%
Cc1ccc(C2(C)NC(=O)N(CC(=O)Nc3cc(S(=O)(=O)N(C)C)ccc3C)C2=O)cc1 (centres undefined) | inconclusive: -46.7%
CC12CCC(C(=O)Nc3ncc([N+](=O)[O-])s3)(OC1=O)C2(C)C (centres undefined) | inconclusive: -41%
COC(=O)c1cc([N+](=O)[O-])c(-n2cncn2)c([N+](=O)[O-])c1 | inconclusive: -36.1%
CCN1CCN(CCC(=O)Nc2ccccc2OC)CC1 | inconclusive: -32.7%
COC(=O)/C(=C\C(=O)c1ccccc1)Nc1cccc(C(F)(F)F)c1 | active: -76.3%
CCC(CC)C(=O)N(C)c1c(C)nc2c(OCc3ccc(Cl)cc3Cl)cccn12 | inconclusive: -45.8%
CN(C)CCC(=O)c1ccc2c(c1)OCO2 | active: -61%
Cc1c(Cl)sn(-c2ccc(Cl)cc2)c1=O | active: -52.1%
CN(C)C(CNC(=O)c1ccc(Br)cc1)c1ccco1 (centres undefined) | active: -63.2%
O=C(NC(=S)N1CCN(C/C=C/c2ccccc2)CC1)c1ccc(F)cc1 | inconclusive: -47.2%
COc1ccc(C(=O)NC(=S)N(Cc2ccccc2)Cc2ccccc2)cc1 | inconclusive: -35.6%

4 compounds already listed, sorted by SMILES length, low to high:
SMILES | max response, negative = inhibition
Cc1c(Cl)sn(-c2ccc(Cl)cc2)c1=O | active: -52.1%
CCN1CCN(CCC(=O)Nc2ccccc2OC)CC1 | inconclusive: -32.7%
COC(=O)/C(=C\C(=O)c1ccccc1)Nc1cccc(C(F)(F)F)c1 | active: -76.3%
COC(=O)c1cc([N+](=O)[O-])c(-n2cncn2)c([N+](=O)[O-])c1 | inconclusive: -36.1%
